These are yes or no findings as the source states them, for the method shown.
Molecular target: biotinylated-insulin
Test: SPR (BIAcore T-100), antibody amine-coupled to CM3 chip, analyte at 400 nM

B1: Abet0144-GL IgG1-TM (antibody, V domains shown)
VH: EVQLLESGGGLVQPGGSLRLSCAASGFTFSVYTMWWVRQAPGKGLEWVSVIGSSGGTTVYADSVKGRFTISRDNSKNTLYLQMNSLRAEDTAVYYCAREWMDHSRPYYYYGMDVWGQGTLVTVSS
VL: SYELTQPPSVSVSPGQTASITCSGHNLEDKFASWYQQKPGQSPVLVIYRDDKRPSGIPERFSASNSGHTATLTISGTQAMDEADYYCQAQDSTTRVFGGGTKLTVL
- binding: no binding (tested: 400 nM)

— patent US20180105585A1
